# Among all 59,000 compounds or so, about 35 (0.06%) were called active. The inconclusive results got no clear call from the source; some entries with a clear call stand among them for comparison. Rule as the data show it: active = max dye-equivalent concentration above about 10 nM; inconclusive = between about 1.1 nM and that limit; inactive = weaker than that.
# Test: qHTS Assay for Spectroscopic Profiling in Texas Red Spectral Region
# Settings: Compound fluorescence, Texas Red channel, 547/618 nm; active compounds read high
# Outline: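 Compound fluorescence was read after 15 min at room temperature in 100 mM Tris, pH 8.0, using 547 nm excitation and 618 nm emission across a concentration series. It was expressed as Texas Red dye-equivalent concentration from an on-plate standard curve.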
row,SMILES,max dye-equivalent concentration
1,CCN1CCCC1CNC(=O)c1cc2c(C)nc3ccccc3c2o1 (centres undefined),inconclusive: 1.9 nM
2,O=C(OC(C(=O)NCc1cccs1)c1ccc(F)cc1)c1ccco1 (centres undefined),inconclusive: 3.1 nM
3,Cc1ccc(=O)n(-c2ccccc2)c1,inconclusive: 1.2 nM
4,Cn1c(=O)c2c(nc(Br)n2Cc2ccccc2Cl)n(C)c1=O,inconclusive: 1.1 nM
5,COc1cccc(C(CC(=O)NCC2CCCO2)NS(=O)(=O)c2ccc(C)cc2)c1OC (centres undefined),inconclusive: 1.2 nM
6,CCOC(=O)N1CCC(NC(=O)CNS(=O)(=O)c2ccc(Br)s2)CC1,inconclusive: 1.6 nM
7,O=C(C1CCCN(Cc2cccnc2)C1)N1CCCCC1 (centres undefined),inconclusive: 1.1 nM
8,Cc1noc(C)c1CSc1nc2sc(C)c(C)c2c(=O)n1-c1ccccc1,inconclusive: 1.2 nM
9,COc1ccc(-c2nnc(-c3ccc(N(C)C)cc3)o2)cc1,inconclusive: 2.1 nM
10,COc1ccc(OCC2CNC(=O)O2)cc1 (centres undefined),inconclusive: 1.8 nM
11,Cc1ccc2[nH]c3c(c2c1)CCc1cn[nH]c1-3,inconclusive: 1.3 nM
12,Cc1cccc(-n2c(SCC(=O)Nc3ccc4c(c3)OCO4)nnc2-c2ccoc2C)c1,inconclusive: 2.1 nM
13,N#Cc1c(N)sc2c1CCCCCC2,inactive
14,O=C(CSc1nc2cc(Cl)ccc2o1)N1CCOCC1,inconclusive: 1.1 nM
15,N#CC1C(=O)NC(N2CCN(c3ccccc3)CC2)=NC12CCCCC2 (centres undefined),inconclusive: 1.3 nM
16,COc1cccc(Nc2ncc3nc(-c4ccccc4)c(=O)n(C[C@H]4CCCO4)c3n2)c1,inactive
17,COc1ccc(Cn2nnnc2C(c2ccccc2OC)N2CCC(C(N)=O)CC2)cc1 (centres undefined),inconclusive: 1.6 nM
18,CCOC(=O)Cc1c(C)nc2cc(-c3ccc(Cl)cc3)[nH]n2c1=O,inconclusive: 1.7 nM
19,COc1ccc(-c2nc3cnc(N4CCN(C)CC4)nc3n(CCC#N)c2=O)cc1,inactive
20,CCOc1nc(-c2ccccc2)ccc1-c1noc(COc2ccccc2)n1,inconclusive: 1.5 nM
21,CCCOc1ccc(N)cc1N,inactive
22,CC1C(=O)C(C)C(c2ccc3c(c2)OCO3)NC1c1ccc2c(c1)OCO2 (centres undefined),inconclusive: 2.2 nM

# Random excerpt: 2 entries already listed
row,SMILES,max dye-equivalent concentration
16,COc1cccc(Nc2ncc3nc(-c4ccccc4)c(=O)n(C[C@H]4CCCO4)c3n2)c1,inactive
15,N#CC1C(=O)NC(N2CCN(c3ccccc3)CC2)=NC12CCCCC2 (centres undefined),inconclusive: 1.3 nM

# Later entries:

row,SMILES,max dye-equivalent concentration
1,Cc1cc(C)nc(N2CCC(C(=O)NCCc3ccc(F)cc3)CC2)n1,inconclusive: 1.2 nM
2,COC(=O)COc1ccc(S(=O)(=O)N2CCN(c3ccccc3F)CC2)cc1,inconclusive: 1.1 nM
3,Cc1ccc(-c2nn3c(C)nnc3c3ccccc23)cc1S(=O)(=O)NCc1ccco1,inconclusive: 1.2 nM
4,O=C1CC(c2ccccc2)n2nc(NC(=O)c3cccs3)nc2N1 (centres undefined),inconclusive: 1.3 nM
5,O=C(Oc1ccc2c(c1)CN(Cc1ccccc1)CO2)c1ccccc1,inconclusive: 1.1 nM
6,COc1ccccc1-n1cnc2cc(NCc3ccco3)ccc21,inconclusive: 1.7 nM
7,N#Cc1c(SCC(N)=O)nsc1SCc1ccccc1Cl,inconclusive: 1.3 nM
8,Cc1sc2ncnc(SCC(=O)N3CCN(C(=O)c4ccco4)CC3)c2c1C,inconclusive: 1.2 nM
9,Cc1ccc(-c2nnc(SCC(=O)N3c4ccccc4NC(=O)C3(C)C)n2N)cc1,inconclusive: 1.2 nM
10,Cc1ccc(NS(=O)(=O)c2cccc(C(=O)O)c2)c(C)c1,inconclusive: 1.4 nM
11,O=C(O)c1cc2ccccc2c(Cc2cc3ccccc3c(C(=O)O)c2O)c1O (tested in a mixture with another compound),inactive
12,COC(=O)CN1C(=O)C2(OCCCO2)c2cc(Br)ccc21,inconclusive: 1.4 nM
13,CCn1c(SCC(=O)Nc2cc(OC)ccc2OC)nnc1C1CCCCC1,inconclusive: 1.4 nM
14,CCn1c(=N)c(C(=O)OC)cc2c(=O)n3ccccc3nc21,inconclusive: 1.6 nM
15,COc1ccc(-n2c(SCC(=O)NCC3CCCO3)nc3n[nH]c(C)c3c2=N)cc1 (centres undefined),inconclusive: 2 nM
16,Nc1cc(N)nc(SCc2ccccc2)n1,inconclusive: 1.3 nM
17,C=C(C)CN(CC#N)CC(=C)C,inactive
18,CCn1c(SCC(=O)n2nc(C)cc2C)nnc1-c1ccc2c(c1)OCO2,inconclusive: 2.7 nM
19,CC(=O)N1CCN(CC(O)COc2ccc(OCc3ccccc3)cc2)CC1 (centres undefined),inconclusive: 1.5 nM
20,COc1cc(OC)c(C(=O)Nc2ccc(N(C)C)cc2)cc1OC,inconclusive: 1.2 nM
21,Cc1nn(S(=O)(=O)N(C)C)c(C)c1CN1C(=O)c2ccccc2C1=O,inconclusive: 2.4 nM
22,COc1cccc(-c2nc(N3CCN(C)CC3)c3ccccc3n2)c1,inactive
